# Some of the results follow.
# Sequences of proteins named here, by UniProt entry; tags and fusion partners are left off.
# UniProt Q0JBA9, entry or part of it: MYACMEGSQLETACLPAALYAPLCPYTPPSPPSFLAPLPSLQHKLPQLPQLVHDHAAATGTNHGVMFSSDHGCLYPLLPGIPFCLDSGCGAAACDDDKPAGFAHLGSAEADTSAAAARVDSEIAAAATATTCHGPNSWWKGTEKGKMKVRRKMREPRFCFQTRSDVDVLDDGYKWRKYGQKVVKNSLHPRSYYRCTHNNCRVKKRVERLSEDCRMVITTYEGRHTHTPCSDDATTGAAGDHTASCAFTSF
# Target: OsWRKY34 (Oryza sativa, UniProt Q0JBA9 1-250)
# Assay: protein-binding microarray (RPBM); PBS, 2% BSA, 51.3 ng/ul salmon testes DNA, 50 uM zinc acetate, 200 nM TF, 25 C, 1 h; high values mean tight binding
# Details: protein: recombinant; tags: N-terminal polyhistidine and DsRed monomer fusion (pET32a); label: CyDye5-dUTP incorporated in the synthesized complementary strand; 3' TTTTT single-stranded linker to array surface; dsDNA, one strand shown
# In short: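 Ni–NTA purification followed expression in E. coli BL21-CodonPlus of transcription factors fused N-terminally to a polyhistidine tag and DsRed. At 200 nM in PBS with 2% BSA, salmon testes DNA and 50 µM zinc acetate, the protein was incubated for 1 h at 25 °C with a custom Agilent array that had been primer-extended with Cy5-dUTP and blocked with 2% BSA. After washing, the array was read on an Axon 4000B scanner. The binding signal is per-feature fluorescence intensity in arbitrary units.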
row,Sequence,binding signal
1,GCGCGCCAAGTTACCGTCATTGCACTCCGACTCCCGATTTCGGAGTCACCTAGTGCAG,12800 fluorescence intensity (a.u.)
2,AATTTTAGTCTATGGTTGCTCACATTTTCTGTTAAATTTTCGGAGTCACCTAGTGCAG,11700 fluorescence intensity (a.u.)
3,TATTTGCACAGCAACTTTGTATGGCCTTCTTTTTTCTTTTCGGAGTCACCTAGTGCAG,8590 fluorescence intensity (a.u.)
4,TCCCGTCTCCGCACCACACAGGCAGCCACACACACACCACCGGAGTCACCTAGTGCAG,8700 fluorescence intensity (a.u.)
5,AAGAAAATCTACGCATACACCATTTTTCCTGTTTTTAAACCGGAGTCACCTAGTGCAG,8070 fluorescence intensity (a.u.)
6,GTCCTGCCGCTTCCGCCGCATCCTGGTGAGCACATCCTCCCGGAGTCACCTAGTGCAG,8020 fluorescence intensity (a.u.)
7,ATAATCCTCATAATTCCATCTATTCAGTTTGCTCCAAATTCGGAGTCACCTAGTGCAG,8120 fluorescence intensity (a.u.)
8,ATATGTATATGTGGTTTTCTGATCTTCCATGTTTCACAAACGGAGTCACCTAGTGCAG,8720 fluorescence intensity (a.u.)
9,AAGCTGACTCCACAACTTTTGTTCTAGTAGTATATTTCTTCGGAGTCACCTAGTGCAG,14000 fluorescence intensity (a.u.)
10,AGCAGATTGGTCTCTTTGACTCTCCTTGTGCGAGAGATTGCGGAGTCACCTAGTGCAG,8220 fluorescence intensity (a.u.)
11,TGGTGACGATGGTGATGTTCTTGTTGTTGGTTTTTCCTTTCGGAGTCACCTAGTGCAG,9530 fluorescence intensity (a.u.)
12,CAAACAGTTGCTCCTTTGTTATTATTCTTCCTTTCTCATTCGGAGTCACCTAGTGCAG,12400 fluorescence intensity (a.u.)
13,ACATCCTATGTCCAGATTCGTAGTACTAAGTTGATTTTTTCGGAGTCACCTAGTGCAG,9420 fluorescence intensity (a.u.)
14,TTTGATTTTTTTTCTAATTGTACTTTACTTTACATCATTTCGGAGTCACCTAGTGCAG,12200 fluorescence intensity (a.u.)
15,ACCTCCGTGTCTTTATGTGATCTGTCTAGTTGACCCTATTCGGAGTCACCTAGTGCAG,11500 fluorescence intensity (a.u.)
16,AGTTCCTGCTTACTGCCACCTAATCTGCCATTTTCTTTTTCGGAGTCACCTAGTGCAG,8860 fluorescence intensity (a.u.)
17,GACTTGTCTTCCGAATTTCTATCTTTTGCCAGATCACCACCGGAGTCACCTAGTGCAG,8400 fluorescence intensity (a.u.)
18,TATTATTCTCGCAATGTCCTTAGCTCCACAAGCAGACCAACGGAGTCACCTAGTGCAG,8250 fluorescence intensity (a.u.)
19,GTTAGCTAGGTGCTTCATCTTATTTTCTTATTTTGCATTTCGGAGTCACCTAGTGCAG,11500 fluorescence intensity (a.u.)
20,ACAAGATAAAGGTGTGGTTTGTATGGGCTGCATATCATCACGGAGTCACCTAGTGCAG,8030 fluorescence intensity (a.u.)
21,CCCGTCGTCGTCTCCTATTCGCTCTCCCGCCGCCTACAAACGGAGTCACCTAGTGCAG,10900 fluorescence intensity (a.u.)
22,GAGTTTTTGGCTTAACCTCAAACCAATGTGCCATCATGTCCGGAGTCACCTAGTGCAG,8180 fluorescence intensity (a.u.)
23,ACATCGCCACATTACTCCGCCCTTTTAGACGCTTGTCTGCCGGAGTCACCTAGTGCAG,9890 fluorescence intensity (a.u.)
24,CTCATCCTTTGGCACTACGGATTTTCTTGGCCAATGACCACGGAGTCACCTAGTGCAG,8350 fluorescence intensity (a.u.)
25,TCTTCCTCTCTGTTTTGTCCTTCTGATTTCTGCCATTGATCGGAGTCACCTAGTGCAG,9960 fluorescence intensity (a.u.)
26,CCCCACGATTTGTCCTCACATGGCCACGCCCAGAACGGCCCGGAGTCACCTAGTGCAG,9740 fluorescence intensity (a.u.)
27,CTGGCGAGCAGAGCAAGGGAGGGGAGGGGAGGGGATCCTGCGGAGTCACCTAGTGCAG,15500 fluorescence intensity (a.u.)

row,Sequence,binding signal
1,AGACAGAAGTCACCTCCCTTACCTTCCCTTTTTCGAGATCCGGAGTCACCTAGTGCAG,8100 fluorescence intensity (a.u.)
2,GTGGTGGTGTCATATGTCTCTGCTGCGATAGTAAATCCTACGGAGTCACCTAGTGCAG,8570 fluorescence intensity (a.u.)
3,GCCGCGCTCGCTCACCGCTGCTCCGCCGCCGCACTCGCGCCGGAGTCACCTAGTGCAG,8170 fluorescence intensity (a.u.)
4,CACCATGCTAGTTTGTTGTAATAGGAGGGGTCATATTAGTCGGAGTCACCTAGTGCAG,8820 fluorescence intensity (a.u.)
5,ATGAGTGGTTAGTTGCGTGTGGTGTCTTATTCATTTATCCCGGAGTCACCTAGTGCAG,9260 fluorescence intensity (a.u.)
6,GGTTATCATTCTGTTCCAAGTCAATTCTTGCATCAATAACCGGAGTCACCTAGTGCAG,13200 fluorescence intensity (a.u.)
7,TTTAAACCATGTTCTGTCCTATCAGTTTTCACTTGCTACTCGGAGTCACCTAGTGCAG,9800 fluorescence intensity (a.u.)
8,GCACTTTTTTTATTTTCAACCGGAACTAAAGATTATTTTTCGGAGTCACCTAGTGCAG,8340 fluorescence intensity (a.u.)
9,TGCATTGACCAGGTCAACGGGAGAGGGAGGGGCAAAATCGCGGAGTCACCTAGTGCAG,19600 fluorescence intensity (a.u.)
10,ATCCCCGTGTTCTCCCCACACAAACCTTCGCGCCGCCCATCGGAGTCACCTAGTGCAG,9540 fluorescence intensity (a.u.)
11,CACCGCCGTCGCCTTCGTCCTCCCACCGTGGAAGCCTCGCCGGAGTCACCTAGTGCAG,8480 fluorescence intensity (a.u.)
12,ATAAACCTATTCATGTCGTATATTACTTATTAATTTCTCCCGGAGTCACCTAGTGCAG,9740 fluorescence intensity (a.u.)
13,TTAGACTTCTCGTCTCTCTTTGTGCTTGTGCTTAGTTGTCCGGAGTCACCTAGTGCAG,8160 fluorescence intensity (a.u.)
14,CTCGTCGTCGCCTCCGCTCCTTGCGCCATCTCGCGGCGCCCGGAGTCACCTAGTGCAG,9480 fluorescence intensity (a.u.)
15,TACAAACCTCAAGAAGCTCAGTGTCGCATCAGTTTGACTGCGGAGTCACCTAGTGCAG,8440 fluorescence intensity (a.u.)
16,AAGTATATTATGTACCTTTTCTGGTATCCTTCCCTTTGAACGGAGTCACCTAGTGCAG,8600 fluorescence intensity (a.u.)
17,TTTGGTTTGGTTTGGTTTGATCCCGAGGAGGAGGAGGAGGCGGAGTCACCTAGTGCAG,10600 fluorescence intensity (a.u.)
18,CATTTAATCTCCTCGTTACCGCTCAATTAACGCACCGATTCGGAGTCACCTAGTGCAG,8880 fluorescence intensity (a.u.)
19,CCTTTGTGTCATCGGTCATGCTGCTAATCCATTATATAATCGGAGTCACCTAGTGCAG,8360 fluorescence intensity (a.u.)
20,GAGATTTGGGATTGGTATGGGCCAGGTGTGATCTAACTTACGGAGTCACCTAGTGCAG,8100 fluorescence intensity (a.u.)
21,GCCCGCACCCGCACCACCGCCCACCACCACCACGCCACGGCGGAGTCACCTAGTGCAG,10600 fluorescence intensity (a.u.)
22,CACGTGGTTTTCTTTTTTTAGCACCACATTACTTTCCTATCGGAGTCACCTAGTGCAG,9090 fluorescence intensity (a.u.)
23,TATATTTCCAAAGGTTTGACTTTCTTTACGAGTACGGAGACGGAGTCACCTAGTGCAG,10500 fluorescence intensity (a.u.)
24,TTTATGATCCTTGCAATTTCTGCCATTCCATCTTAGAATTCGGAGTCACCTAGTGCAG,10100 fluorescence intensity (a.u.)
25,CGAACAAGCTGATTAACATGCATGATTTCCTAGTATTTCCCGGAGTCACCTAGTGCAG,9920 fluorescence intensity (a.u.)
26,GAGTAACTTTTAATCCGAGCCATTTATGCACTTCAATTTTCGGAGTCACCTAGTGCAG,10000 fluorescence intensity (a.u.)
27,CTCGCTCGCTCGCGCACACACCACCCAACGGATTAACATGCGGAGTCACCTAGTGCAG,8290 fluorescence intensity (a.u.)

# Rewritten bar-delimited: part of the list above
row | Sequence | binding signal
2 | GTGGTGGTGTCATATGTCTCTGCTGCGATAGTAAATCCTACGGAGTCACCTAGTGCAG | 8570 fluorescence intensity (a.u.)
3 | GCCGCGCTCGCTCACCGCTGCTCCGCCGCCGCACTCGCGCCGGAGTCACCTAGTGCAG | 8170 fluorescence intensity (a.u.)
4 | CACCATGCTAGTTTGTTGTAATAGGAGGGGTCATATTAGTCGGAGTCACCTAGTGCAG | 8820 fluorescence intensity (a.u.)
5 | ATGAGTGGTTAGTTGCGTGTGGTGTCTTATTCATTTATCCCGGAGTCACCTAGTGCAG | 9260 fluorescence intensity (a.u.)
